Results: patent US7358278B2, “Cellular phosphorylation potential enhancing compositions preparation and use thereof” (priority 1994, dated 2008)
At least one compound was matched to its structure with a doubt left.

How the values were obtained:
[1] = system: rat cerebral cortical astrocytes; type: cell-based; conditions: Krebs buffer; aminoacids 1 mM each, pyruvate 1 mM
Experimental: Astrocytes were treated with increasing amounts of the ER calcium pump inhibitor thapsigargin for 24 hrs in either Krebs buffer or MEM. Cell viability was determined using the MTT assay.
FIG. 10. Exogenous pyruvate provides protection to astrocytes from calcium overload in Krebs Buffer.
For these experiments astrocytes were cultured in either MEM or in Krebs alone or in Krebs with different aminoacid additions grouped as in FIG. 8. Aminoacids were used at 1 mM each. Following 30 min incubation with aminoacids, 15 μM thapsigargin was added to the cultures and the astrocytes cultured for another 24 hours in the presence or absence of 10 mM cinnamate, at which point cell viability was determined using the MTT assay. Cell viability is expressed as percent of that seen with MEM without thapsigargin addition. At the 15 μM thapsigargin dose, about 80% viability is seen in MEM and this is reduced to 20% by the addition of pyruvate. […]
The combination of pyruvate, nicotinamide, and creatine has synergistic benefits for cellular energy metabolism and is also cytoprotective. […] Since we had shown that pyruvate protects neurons from calcium overload induced by thapsigargin toxicity, we first determined whether endogenously produced or exogenously supplied pyruvate could protect astrocytes from calcium overload induced by thapsigargin as shown previously for GT1-7 neurons. […]

rat cortical neurons = test: Glutamate-induced delayed toxicity, neuroprotection, MTT assay; conditions: increasing amounts of pyruvate, 24 hrs after glutamate pulse, FIG. 5
GT1-7 cells = test: Thapsigargin (calcium overload) toxicity, neuroprotection, MTT dye reduction assay; conditions: 20 micromolar thapsigargin, FIG. 4B

`CC(=O)C(=O)O` [Pyruvate, pyruvate] was tested, and the “protection of astrocytes against thapsigargin toxicity in Krebs (in words)” value [1] was “provides some cytoprotection”, the “protection against glutamate toxicity (in words)” value (rat cortical neurons) was “dose-dependantly protect against glutamate toxicity” and the “protection against calcium overload (in words)” value (GT1-7 cells) was “nearly complete dose dependent protection”.
